{
  "sequences": {"note": "Protein sequences, listed by entry. Tags and fused reporters are not part of them. Residues count along the entry.", "UniProt P41597": "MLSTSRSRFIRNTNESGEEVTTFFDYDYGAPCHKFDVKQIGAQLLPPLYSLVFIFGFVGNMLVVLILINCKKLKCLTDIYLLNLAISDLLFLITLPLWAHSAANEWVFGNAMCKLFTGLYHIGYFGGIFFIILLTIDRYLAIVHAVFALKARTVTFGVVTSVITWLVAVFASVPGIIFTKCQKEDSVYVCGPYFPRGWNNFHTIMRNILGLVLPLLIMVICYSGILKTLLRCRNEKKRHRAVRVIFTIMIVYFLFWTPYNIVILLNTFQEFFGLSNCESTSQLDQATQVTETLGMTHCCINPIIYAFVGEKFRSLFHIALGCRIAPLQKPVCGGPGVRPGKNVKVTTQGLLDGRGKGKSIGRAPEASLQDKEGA", "UniProt P13500, residues 24-99": "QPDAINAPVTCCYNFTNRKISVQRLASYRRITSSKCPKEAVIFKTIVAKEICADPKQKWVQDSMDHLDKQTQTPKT"},
  "source": "patent EP2717940B1",
  "target": "chemokine (C-C motif) receptor 2 (CCR2) on peripheral blood cells (human) (UniProt P41597)",
  "assay": "flow cytometry on monocytes of peripheral blood from IBD patients",
  "note": "Results are given in words; binding and its absence hold for the method and conditions named. Some results given as binding are weak or reduced against the parent protein; the word gives no strength.",
  "data": [
    {"substance": "biotinylated and Alexa647 Fluor labeled MCP-1 (from UniProt P13500 24-99) (ligand)", "values": [
      {"measurement": "binding", "value": "binds"}
    ]}
  ]
}
